Data source: PubChem BioAssay AID1508597 (Cure First, 2020)

Aim: 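Knock-downs altering ovarian cancer cell survival with or without PARP inhibitor rucaparib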 (primary screen)
Cell system: human ovarian carcinoma lines grown from tumours: OCI-P5x (papillary serous) and OCI-C5x (clear cell)
Knock-down reagent: siRNA pool against human genes, 1.25 pmol siRNA per well
Timing: 72 h or 96 h, depending on the cell culture
Conditions: rucaparib 20 µM (about IC30) or vehicle, present until read-out
Rucaparib or vehicle: Rucaparib
Cell line: OCI-C5x (clear cell)
Measurement: 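Luminescent ATP-based viability assay read 72 or 96 h after transfection, depending on culture, given as normalised percent viability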
Scale: viability, normalised: higher = more viable cells remaining
Call rule: 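a well counts as a hit if its normalised viability is under 80 percent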
Meaning of the calls: active = viability under 80%; inactive = viability 80% or more
This is an unselected part of the about 2,100 reagents, in one setting of the screen. 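Calls flag viability under 80% in either arm, not effects specific to rucaparib; the reference for percent is not stated.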 Entries without a mark were called inactive. The numbers tell different reagents against one gene apart. A reagent listed more than once was tested more than once; the source does not tell the runs apart. The record does not give: the 100% reference.

The opening 3 records, to show the layout:
| target | reagent no. | technical replicate | viability, normalised (%) |
| --- | --- | --- | --- |
| ESRRB (estrogen related receptor beta) | 1 | 1 | 67.9 (active) |
| ESRRB (estrogen related receptor beta) | 1 | 2 | 56.8 (active) |
| ESRRB (estrogen related receptor beta) | 1 | 3 | 61.4 (active) |

Results, repeating the preview:
| target | reagent no. | technical replicate | viability, normalised (%) |
| --- | --- | --- | --- |
| ESRRB (estrogen related receptor beta) | 1 | 1 | 67.9 (active) |
| ESRRB (estrogen related receptor beta) | 1 | 2 | 56.8 (active) |
| ESRRB (estrogen related receptor beta) | 1 | 3 | 61.4 (active) |
| PFKFB1 (6-phosphofructo-2-kinase/fructose-2,6-biphosphatase 1) | 1 | 1 | 49.4 (active) |
| PFKFB1 (6-phosphofructo-2-kinase/fructose-2,6-biphosphatase 1) | 1 | 2 | 69.6 (active) |
| PFKFB1 (6-phosphofructo-2-kinase/fructose-2,6-biphosphatase 1) | 1 | 3 | 39.2 (active) |
| ZCWPW1 (zinc finger CW-type and PWWP domain containing 1) | 1 | 1 | 46.6 (active) |
| ZCWPW1 (zinc finger CW-type and PWWP domain containing 1) | 1 | 2 | 53.8 (active) |
| ZCWPW1 (zinc finger CW-type and PWWP domain containing 1) | 1 | 3 | 35.8 (active) |
| LCK (LCK proto-oncogene, Src family tyrosine kinase) | 1 | 1 | 52.9 (active) |
| LCK (LCK proto-oncogene, Src family tyrosine kinase) | 1 | 2 | 60.4 (active) |
| LCK (LCK proto-oncogene, Src family tyrosine kinase) | 1 | 3 | 59.4 (active) |
| STRADB (STE20 related adaptor beta) | 1 | 1 | 49.8 (active) |
| STRADB (STE20 related adaptor beta) | 1 | 2 | 48.8 (active) |
| STRADB (STE20 related adaptor beta) | 1 | 3 | 37.5 (active) |
| CSNK1D (casein kinase 1 delta) | 1 | 1 | 45.4 (active) |
| CSNK1D (casein kinase 1 delta) | 1 | 1 | 103 |
| CSNK1D (casein kinase 1 delta) | 1 | 2 | 87.9 |
| CSNK1D (casein kinase 1 delta) | 1 | 2 | 48 (active) |
| CSNK1D (casein kinase 1 delta) | 1 | 3 | 38.6 (active) |
| CSNK1D (casein kinase 1 delta) | 1 | 3 | 88.6 |
| H2BC12 (H2B clustered histone 12) | 1 | 1 | 64.4 (active) |
| H2BC12 (H2B clustered histone 12) | 1 | 2 | 69.1 (active) |
| H2BC12 (H2B clustered histone 12) | 1 | 3 | 54.6 (active) |
| DDX55 (DEAD-box helicase 55) | 1 | 1 | 52.1 (active) |
| DDX55 (DEAD-box helicase 55) | 1 | 2 | 57.6 (active) |
| DDX55 (DEAD-box helicase 55) | 1 | 3 | 41.1 (active) |
| PI4KB (phosphatidylinositol 4-kinase beta) | 1 | 1 | 41.9 (active) |
| PI4KB (phosphatidylinositol 4-kinase beta) | 1 | 2 | 37 (active) |
| PI4KB (phosphatidylinositol 4-kinase beta) | 1 | 3 | 44.4 (active) |
| PI4KB (phosphatidylinositol 4-kinase beta) | 2 | 1 | 41.5 (active) |
| PI4KB (phosphatidylinositol 4-kinase beta) | 2 | 2 | 48.3 (active) |
| PI4KB (phosphatidylinositol 4-kinase beta) | 2 | 3 | 50.7 (active) |
| BMP7 (bone morphogenetic protein 7) | 1 | 1 | 72 (active) |
| BMP7 (bone morphogenetic protein 7) | 1 | 2 | 67.1 (active) |
| BMP7 (bone morphogenetic protein 7) | 1 | 3 | 49.7 (active) |
| PRKRA | 1 | 1 | 55.7 (active) |
| PRKRA | 1 | 2 | 58.3 (active) |
| PRKRA | 1 | 3 | 39.1 (active) |
| DNMT3B (DNA methyltransferase 3 beta) | 1 | 1 | 51.2 (active) |
| DNMT3B (DNA methyltransferase 3 beta) | 1 | 2 | 56.3 (active) |
| DNMT3B (DNA methyltransferase 3 beta) | 1 | 3 | 42.4 (active) |
| GDE1 (glycerophosphodiester phosphodiesterase 1) | 1 | 1 | 43 (active) |
| GDE1 (glycerophosphodiester phosphodiesterase 1) | 1 | 2 | 43.9 (active) |
| GDE1 (glycerophosphodiester phosphodiesterase 1) | 1 | 3 | 29.6 (active) |
| TSSK3 (testis specific serine kinase 3) | 1 | 1 | 45 (active) |
| TSSK3 (testis specific serine kinase 3) | 1 | 2 | 74.1 (active) |
| TSSK3 (testis specific serine kinase 3) | 1 | 3 | 58.2 (active) |
| L3MBTL1 (L3MBTL histone methyl-lysine binding protein 1) | 1 | 1 | 44.5 (active) |
| L3MBTL1 (L3MBTL histone methyl-lysine binding protein 1) | 1 | 2 | 49.8 (active) |
| L3MBTL1 (L3MBTL histone methyl-lysine binding protein 1) | 1 | 3 | 44.4 (active) |
| TXK (TXK tyrosine kinase) | 1 | 1 | 37.6 (active) |
| TXK (TXK tyrosine kinase) | 1 | 1 | 40.1 (active) |
| TXK (TXK tyrosine kinase) | 1 | 2 | 52.6 (active) |
| TXK (TXK tyrosine kinase) | 1 | 2 | 59.2 (active) |
| TXK (TXK tyrosine kinase) | 1 | 3 | 56.4 (active) |
| TXK (TXK tyrosine kinase) | 1 | 3 | 49.9 (active) |
